{"source": "patent US5643604A", "about": "“Parenteral dosage form” (Aplicaciones Farmaceuticas S.A. De C.V., priority 1990, dated 1997)", "key": {"[1]": {"assay": "Comparative UV spectrophotometric analysis before and after formation of microspheres", "type": "physicochemical", "conditions": "starting materials (crystals) vs microspheres obtained by spray-freezing; ethanol for 17-beta-estradiol and cholesterol, 0.1N HCl for the others", "text": "(§1) It is necessary to check that no chemical damage of the substances occurs during the spray-freezing process, which could modify their therapeutic properties. The starting materials (crystals) and the microspheres obtained by spray-freezing are compared by UV and IR spectrophotometry. UV spectras shall always be superimposable and IR spectras shall correspond. If differences in infrared spectras appear, it shall be checked if they are due to a polymorphism phenomenon, by means of an HPLC setup with diode-array detection. Differential thermal analysis is also used, not only to check the melting points, but also to determine if endothermic or exothermic transitions occur, due either to structure modifications or to a polymorphism, which may influence the microsphere information process, or due to heat-induced chemical reactions.\nEquipment used in ultraviolet spectrography: Hewlett Packard model 8452A with photodiode arrangement and quartz cell with a beam of 0.1 cm."}, "[2]": {"assay": "Comparative infrared spectrophotometry (FT-IR, with HPLC diode-array) before and after formation of microspheres", "type": "physicochemical", "conditions": "after the formation of microspheres; potassium bromide dispersion", "text": "as §1\nEquipment used in infrared spectrophotometry: Nicolet 205 FT-IR. Dispersion medium: potassium bromide. Chromatography: HPLC device with photo diode-array detector, model Waters 990 and Nec powermate 2 workstation."}, "[3]": {"conditions": "general statement, no test described; cited from earlier work"}}, "data": [{"smiles": "CN1C(=O)CN=C(c2ccccc2)c2cc(Cl)ccc21", "note": "[diazepam]", "values": [{"measurement": "chemical modification by UV spectrophotometry", "setting": "[1]", "result": "no trace of modification"}, {"measurement": "chemical modification by infrared spectrophotometry", "setting": "[2]", "result": "no modification"}]}, {"smiles": "CN1CC[C@]23c4c5ccc(O)c4O[C@H]2[C@@H](O)C=C[C@H]3[C@H]1C5", "note": "[morphine basic]", "values": [{"measurement": "temperature of physical and chemical instability", "setting": "[3]", "result": "~200", "unit": "°C"}]}]}
